From patent US20250051355A1, “COMPOUNDS, COMPOSITIONS, AND METHODS” (ACONCAGUA BIO, INC., priority 2023, published 2025) come the findings set out here.

By UniProt entry, the sequences of proteins in these tests, tags left out. Residues count along the entry.
UniProt P30988, 25-474 limits assumed: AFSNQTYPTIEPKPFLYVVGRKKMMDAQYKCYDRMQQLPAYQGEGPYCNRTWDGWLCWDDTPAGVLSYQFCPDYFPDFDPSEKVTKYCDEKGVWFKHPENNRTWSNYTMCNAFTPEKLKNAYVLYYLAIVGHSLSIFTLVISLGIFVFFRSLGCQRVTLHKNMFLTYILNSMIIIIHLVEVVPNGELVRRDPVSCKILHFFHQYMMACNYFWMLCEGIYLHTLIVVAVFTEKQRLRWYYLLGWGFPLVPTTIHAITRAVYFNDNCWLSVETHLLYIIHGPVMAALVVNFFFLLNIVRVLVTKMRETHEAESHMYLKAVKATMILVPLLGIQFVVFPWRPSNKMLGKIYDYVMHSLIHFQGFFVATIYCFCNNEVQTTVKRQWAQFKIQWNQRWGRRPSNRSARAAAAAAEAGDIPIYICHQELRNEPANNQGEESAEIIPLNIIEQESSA
UniProt O60896, 24-148 partner limits assumed: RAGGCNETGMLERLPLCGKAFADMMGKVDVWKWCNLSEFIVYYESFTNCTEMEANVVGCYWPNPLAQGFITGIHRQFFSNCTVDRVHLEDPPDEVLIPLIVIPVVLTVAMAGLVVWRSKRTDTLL

Structures were worked out from names or drawings and are uncertain.

Experiment [1] concerns the target human calcitonin receptor (CTR) (Homo sapiens, UniProt P30988). The experiment can be described thus: Calcitonin receptor (CTR) cAMP Assay. The conditions noted are these: read-out: Calcitonin Receptor cAMP Stimulation Activity: EC50; COS7-human CTR Clone #2 cells, cAMP dynamic 2 kit. From the text: Calcitonin receptor (CTR) cAMPAssay
The calcitonin receptor (CTR) belongs to the subfamily of GPCRs known as the secretin or ‘B’ family of GPCRs. Like other class B1 GPCRs, the CT receptor family is canonically coupled to Gs-mediated cAMP production, and measurement of cAMP accumulation has been the primary assay used to determine peptide selectivity and potency.
To optimize functional activity directed toward Gas coupling, COS-7 cells were stably transfected with human calcitonin receptor (CTR) to create COS7-human CTR Clone #2 stable cell line. 100× concentration of compound working solutions were prepared with 4-fold serial dilution in 384-well Echo LDV plate (Labcyte, Cat #LP-0200-BC). 200 nL/well 100×concentration of compound working solutions were moved to 384-well white microplate (Perkin Elmer, Cat #6007680) using Labcyte ECHO550. […]
After incubation, the cAMP assay signal was generated using cAMP dynamic 2 kit (Revvity, Cat #62AM4PEC). […] cAMP-d2 working solution was added to each well, followed by 10 μL Anti-cAMP antibody-cryptate working solution which was added to each well using CERTUS FLEX LIQUID DISPENSER The samples were then incubated at room temperature for 1 hour protected from light. the fluorescence was read at 665 and 615 nm with Reader PerkinElmer EnVision 2105.

For experiment [2], the target named is human calcitonin receptor (CTR) and RAMP3 (AMY3) (Homo sapiens, UniProt O60896+P30988). The experiment can be described thus: Amylin Receptor cAMP Assay II. The conditions noted are these: read-out: Amylin Receptor cAMP Stimulation Activity: EC50, COS-7/AMY3 cells, cAMP dynamic 2 kit. From the text:
Amylin Receptor cAMPAssay II
AMYRs are heterodimers of the class B calcitonin (CT) G-protein-coupled receptor (CTR) and receptor activity-modifying proteins (RAMPs). All three RAMPs can interact with the CTR and form AMY1, AMY2, AMY3 with RAMP1, RAMP2 and RAMP3, respectively. Like other class B1 GPCRs, the CT receptor family is canonically coupled to Gs-mediated cAMP production, and measurement of cAMP accumulation has been the primary assay used to determine peptide selectivity and potency.
To optimize functional activity directed toward Gas coupling, COS-7 cells were stably transfected with human calcitonin receptor (CTR) and RAMP3, simultaneously. 100×concentration of compound working solutions were prepared with 4-fold serial dilution in 384-well Echo LDV plate (Labcyte, Cat #LP-0200-BC). […]
After incubation, the cAMP assay signal was generated using cAMP dynamic 2 kit (Revvity, Cat #62AM4PEC). 10 μL cAMP-d2 working solution was added to each well, followed by 10 μL Anti-cAMP antibody-cryptate working solution which was added to each well using CERTUS FLEX LIQUID DISPENSER The samples were then incubated at room temperature for 1 hour protected from light. the fluorescence was read at 665 and 615 nm with Reader PerkinElmer EnVision 2105.

`Cc1nnc(-c2c(COc3ccc(F)cc3)nc3c(c2-c2ccc(C(=O)N[C@@H]4CCc5ncccc54)s2)C(=O)N2CCC[C@@H]32)o1` [Compound 32, N—[(R)-4-aza-1-indanyl]-5-{(2S)-11-[(p-fluorophenoxy)methyl]-10-(5-methyl-1,3,4-oxadiazol-2-yl)-7-oxo-6,12-diazatricyclo[6.4.0.0^2,6]dodeca-1(8),9,11-trien-9-yl}-2-thenamide]: the EC50 in experiment [1] was 194 nM.

Regarding `Cc1cc(-c2c(CCC34CCC(CC3)OC4)nc3c(c2-c2ccc4c(c2)oc(=O)n4Cc2ccc(C#N)cn2)C(=O)N2CCC[C@@H]32)ccn1`, the EC50 in experiment [2] amounted to 48.7 nM; in experiment [1], 0.75 nM.
